At least one structure is not confirmed: it was looked up by name or label, or the drawing left a doubt.
Molecular target: T1, human glucocorticoid receptor (hGR) (Homo sapiens, UniProt P04150)
T1 construct: made in house; host or cells: Sf21 insect cells infected with baculovirus hGR, OR IM9 lymphoblast cell line (endogenous hGR)
T1 sequence (P04150 1-777): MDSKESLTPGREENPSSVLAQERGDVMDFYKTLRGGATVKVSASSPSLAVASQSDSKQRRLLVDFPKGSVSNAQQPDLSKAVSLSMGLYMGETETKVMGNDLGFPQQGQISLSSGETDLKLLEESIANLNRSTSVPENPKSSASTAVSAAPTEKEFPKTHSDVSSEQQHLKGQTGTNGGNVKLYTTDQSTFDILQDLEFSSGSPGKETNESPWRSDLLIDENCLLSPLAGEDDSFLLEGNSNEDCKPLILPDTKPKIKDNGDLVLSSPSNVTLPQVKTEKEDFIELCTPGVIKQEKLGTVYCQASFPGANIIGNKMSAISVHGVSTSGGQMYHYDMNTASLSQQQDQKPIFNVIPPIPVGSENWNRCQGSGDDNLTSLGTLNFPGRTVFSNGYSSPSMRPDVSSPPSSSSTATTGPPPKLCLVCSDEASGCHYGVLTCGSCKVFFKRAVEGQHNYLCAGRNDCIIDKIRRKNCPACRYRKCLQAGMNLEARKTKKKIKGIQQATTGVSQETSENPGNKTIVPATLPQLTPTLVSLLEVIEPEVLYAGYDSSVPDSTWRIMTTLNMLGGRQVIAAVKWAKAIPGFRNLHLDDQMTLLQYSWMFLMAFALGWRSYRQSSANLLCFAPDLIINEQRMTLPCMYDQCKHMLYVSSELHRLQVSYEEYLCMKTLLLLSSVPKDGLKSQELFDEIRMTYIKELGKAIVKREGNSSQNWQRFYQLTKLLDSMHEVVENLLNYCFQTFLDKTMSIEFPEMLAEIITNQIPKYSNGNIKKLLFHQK
Assay: human glucocorticoid receptor binding assay (displacement of 3(H) Triamcinolone acetonide)
Protocol: A human glucocorticoid receptor binding assay was carried out to determine the extent to which the compounds of this invention have the ability to bind to human glucocorticoid receptors. This binding ability may be indicative of the antiinflammatory activity of the compound. The test was carried out as follows.
Human glucocorticoid receptors were prepared from either insect cells (Sf21) infected with baculovirus hGR or from a lymphoblast cell line which expresses high levels of endogenous hGR (IM9). The receptor binding reactions, with or without test compounds, were set up in 96-well microtiter plates which were previously siliconized with SIGMACOTE™, a chlorinated organopolysiloxane in heptane. The binding components, 3(H) Triamcinolone acetonide (TAA), glycerol/molybdate-containing buffer and unlabeled compounds were added to the wells using a combination of BIOMEK laboratory automation system and repeat pipettes. After four hours of incubation, the samples were precipitated with polyethylene glycol and filtered through Whatman GF/F paper using a TOMTEK cell harvester. The filter mate with 96 samples were bound to a solid-phase scintillant and directly counted in a BETAPLATE counter. […] The activity of test compounds to displace 3(H) TAA binding to hGR is also expressed as percent inhibition at 1 μM.

With `O=C(Cc1cccs1)NCC(c1ccccc1)C(c1ccccc1)c1ccccc1` (single isomer, unassigned) [29 (+)] the IC50 was 24 nM.

Source: US6509369B2, “Anti-inflammatory compounds” (Ortho-McNeil Pharmaceutical, Inc., priority 1997, dated 2003)
